# Source: PubChem BioAssay AID248 (DTP/NCI, 2004)
# The list does not hold the whole screen: it gathers tests that were run many times, whatever their T/C, doses with no T/C, and many T/C values between a quarter and a half above the control. Further doses and runs are listed elsewhere. T/C: endpoint of the treated group in % of that of the vehicle group. Some entries give survivors of the animals treated and no T/C: the source files T/C as zero there, which appears to mark a toxic dose or a test without result, not a measured value. Some doses without a T/C left all or most animals alive at the check, yet need not have been tolerated: survival well below the control is almost never listed, so the zero probably covers shortened survival too. Survivors were counted at the toxicity check, usually on the fifth day, unless a day is given; later deaths do not show. Schedules are NCI's codes, taken here to give the interval after Q, in days (D) or hours (H), and the number of doses after X. Some schedules carry Z or #; the key to these is not given. Some doses were run more than once; the values are given in rising order. For survival time, the PubChem record calls one and a half times the control and up active, and a quarter to a half above the control has no call in these data; cut-offs in other NCI protocols can differ. Some T/C values are followed by the survivors on the day toxicity was checked, most often the fifth; without a count, all were alive then.
# System: L1210 leukemia ip in BDF1 mice, survival T/C
# Assay: NCI In Vivo Anticancer Drug Screen. Data for tumor model L1210 Leukemia (intraperitoneal) in B6D2F1 (BDF1) mice
# Settings: T/C endpoint: mean survival time, higher T/C = longer survival
# [1] = dose: 50.0 mg/kg/injection, schedule: Q04DX002 (ip), vehicle: saline with Tween-80
# [2] = dose: 50.0 mg/kg/injection, schedule: Q01DX009 (ip), vehicle: saline
# [3] = dose: 200.0 mg/kg/injection, schedule: Q01DX009 (ip), vehicle: saline
# [4] = dose: 40.0 mg/kg/injection, schedule: Q01DX001 (ip), vehicle: carboxymethylcellulose (CMC)
# [5] = dose: 50.0 mg/kg/injection, schedule: Q01DX001 (ip), vehicle: carboxymethylcellulose (CMC)
# [6] = dose: 80.0 mg/kg/injection, schedule: Q01DX001 (ip), vehicle: carboxymethylcellulose (CMC)
# [7] = dose: 100.0 mg/kg/injection, schedule: Q01DX001 (ip), vehicle: carboxymethylcellulose (CMC)
# [8] = dose: 200.0 mg/kg/injection, schedule: Q01DX001 (ip), vehicle: carboxymethylcellulose (CMC)
# [9] = dose: 400.0 mg/kg/injection, schedule: Q01DX001 (ip), vehicle: carboxymethylcellulose (CMC)
structure (smiles),measurement,setting,value
C#CC(=O)OCC#CCOC(=O)C#C,survivor count,"dose: 12.5 mg/kg/injection, schedule: Q01DX009 (ip), vehicle: saline with Tween-80",5 of 6
same,survivor count,"dose: 25.0 mg/kg/injection, schedule: Q01DX009 (ip), vehicle: saline with Tween-80",0 of 6
same,survivor count,"dose: 25.0 mg/kg/injection, schedule: Q04DX002 (ip), vehicle: saline with Tween-80",1 of 3
same,survivor count,[1],1 of 3
same,survivor count,"dose: 100.0 mg/kg/injection, schedule: Q04DX002 (ip), vehicle: saline with Tween-80",0 of 3 and 1 of 3
same,survivor count,"dose: 200.0 mg/kg/injection, schedule: Q04DX002 (ip), vehicle: saline with Tween-80",0 of 3
same,survivor count,"dose: 400.0 mg/kg/injection, schedule: Q04DX002 (ip), vehicle: saline with Tween-80",0 of 3
CN(N=Nc1ccccc1C(=O)NN)C1CCCCC1,survivor count,"dose: 400.0 mg/kg/injection, schedule: Q01DX009 (ip), vehicle: other",0 of 6
O=C(c1ccc2ccccc2c1)c1cccc(F)c1C(=O)O (tested in a mixture with another compound),survivor count,"dose: 300.0 mg/kg/injection, schedule: Q01DX001 (ip), vehicle: carboxymethylcellulose (CMC)",2 of 6
CC(=O)OCc1c(O)c2c(c(O)c1COC(C)=O)C(=O)C=CC2=O,survivor count,"dose: 25.0 mg/kg/injection, schedule: Q01DX009 (ip), vehicle: saline",4 of 6
same,survivor count,[2],3 of 6
same,survivor count,"dose: 100.0 mg/kg/injection, schedule: Q01DX009 (ip), vehicle: saline",0 of 6
same,survivor count,[3],0 of 6
same,survivor count,"dose: 400.0 mg/kg/injection, schedule: Q01DX009 (ip), vehicle: saline",0 of 6
O=C(Nc1ccccc1C(F)(F)F)Oc1ccc(Cl)cc1Cl,survivor count,"dose: 400.0 mg/kg/injection, schedule: Q01DX009 (ip), vehicle: saline with Tween-80",0 of 6
CCCCCCCCCCCC(=O)NC(=S)Nc1ccccc1F,survivor count,"dose: 400.0 mg/kg/injection, schedule: Q04DX003 (ip), vehicle: Klucel (hydroxypropylcellulose) (HPC)",0 of 6
CC(=O)OCC1C(C)CCC1C(C)(C)OC(C)=O (stereo not drawn),survivor count,"dose: 200.0 mg/kg/injection, schedule: Q01DX001 (ip), vehicle: saline",0 of 6
same,survivor count,"dose: 400.0 mg/kg/injection, schedule: Q01DX001 (ip), vehicle: saline",1 of 6
CCCCC(CC)(CCN)CCCC,survivor count,[4],0 of 4
same,survivor count,[5],0 of 4
same,survivor count,[6],0 of 4
same,survivor count,[7],0 of 4
same,survivor count,[8],0 of 4
same,survivor count,[9],0 of 4
NC(CSSCC(N)=NC1CCCCC1)=NC1CCCCC1,survivor count,"dose: 25.0 mg/kg/injection, schedule: Q01DX009 (ip), vehicle: carboxymethylcellulose (CMC)",1 of 6
same,survivor count,"dose: 50.0 mg/kg/injection, schedule: Q01DX001 (ip), vehicle: saline with Tween-80",2 of 6
same,survivor count,"dose: 50.0 mg/kg/injection, schedule: Q01DX009 (ip), vehicle: carboxymethylcellulose (CMC)",0 of 3 and 3 of 6
same,survivor count,"dose: 50.0 mg/kg/injection, schedule: Q04DX002 (ip), vehicle: carboxymethylcellulose (CMC)",1 of 3
same,survivor count,"dose: 100.0 mg/kg/injection, schedule: Q04DX002 (ip), vehicle: carboxymethylcellulose (CMC)","0 of 3, 2 of 6, 5 of 6"
same,survivor count,"dose: 200.0 mg/kg/injection, schedule: Q04DX002 (ip), vehicle: carboxymethylcellulose (CMC)",0 of 3 and 4 of 6
same,survivor count,"dose: 400.0 mg/kg/injection, schedule: Q04DX002 (ip), vehicle: carboxymethylcellulose (CMC)",0 of 3 and 0 of 6
same,survivor count,"dose: 400.0 mg/kg/injection, schedule: Q04DX003 (ip), vehicle: carboxymethylcellulose (CMC)",0 of 6
CCn1c(N)c2c(ncn2Cc2ccccc2)nc1=S,survivor count,"dose: 100.0 mg/kg/injection, schedule: Q01DX001 (ip), vehicle: acetone",1 of 6
same,survivor count,"dose: 200.0 mg/kg/injection, schedule: Q01DX001 (ip), vehicle: acetone",0 of 6
same,survivor count,"dose: 400.0 mg/kg/injection, schedule: Q01DX001 (ip), vehicle: acetone",0 of 6
COC(=O)C12C(=CCP1(C)=O)C(c1ccccc1)=NN2c1ccccc1 (stereo not drawn),survivor count,[1],3 of 3
CN1CCN(CCCN2c3ccccc3Sc3ccc(Cl)cc32)CC1,survivor count,"dose: 400.0 mg/kg/injection, schedule: Q04DX002 (ip), vehicle: Klucel (hydroxypropylcellulose) (HPC)",1 of 3
CN(N=O)C(=O)Nc1cccc2cccnc12,survivor count,"dose: 50.0 mg/kg/injection, schedule: Q01DX Z (ip), vehicle: carboxymethylcellulose (CMC)",4 of 6
same,survivor count,"dose: 100.0 mg/kg/injection, schedule: Q01DX Z (ip), vehicle: carboxymethylcellulose (CMC)",5 of 6
O=CN1CCCC1C(=O)O (stereo not drawn),survivor count,"dose: 400.0 mg/kg/injection, schedule: Q01DX009 (ip), vehicle: water",0 of 6
COc1cc(Cc2nccc3cc(OC)c(OC)cc23)c(C(C)=O)cc1OC,T/C,"dose: 10.0 mg/kg/injection, schedule: Q01DX009 (ip), vehicle: saline",127 % of control
same,T/C,"dose: 10.0 mg/kg/injection, schedule: Q01DX Z (ip), vehicle: saline",126 % of control
same,T/C,"dose: 15.0 mg/kg/injection, schedule: Q01DX009 (ip), vehicle: saline",126 % of control
same,T/C,"dose: 15.0 mg/kg/injection, schedule: Q01DX Z (ip), vehicle: saline",125 % of control
same,T/C,"dose: 23.0 mg/kg/injection, schedule: Q01DX009 (ip), vehicle: saline",136 % of control
same,T/C,"dose: 23.0 mg/kg/injection, schedule: Q01DX Z (ip), vehicle: saline",134 % of control
same,T/C,"dose: 35.0 mg/kg/injection, schedule: Q01DX Z (ip), vehicle: saline",130 [5 of 6 alive] and 134 % of control
same,survivor count,[2],4 of 7
same,T/C,"dose: 50.0 mg/kg/injection, schedule: Q01DX Z (ip), vehicle: saline",129 % of control
same,survivor count,"dose: 75.0 mg/kg/injection, schedule: Q01DX009 (ip), vehicle: saline",6 of 7
same,survivor count,"dose: 110.0 mg/kg/injection, schedule: Q01DX Z (ip), vehicle: saline",2 of 6 and 6 of 6
same,survivor count,"dose: 165.0 mg/kg/injection, schedule: Q01DX Z (ip), vehicle: saline",0 of 6
same,survivor count,"dose: 250.0 mg/kg/injection, schedule: Q01DX Z (ip), vehicle: saline",0 of 6
same,survivor count,"dose: 375.0 mg/kg/injection, schedule: Q01DX Z (ip), vehicle: saline",0 of 6
O=C(CC(=O)c1ccccc1)Nc1ccccc1,survivor count,"dose: 200.0 mg/kg/injection, schedule: Q01DX009 (ip), vehicle: gum acacia",6 of 6
same,survivor count,"dose: 400.0 mg/kg/injection, schedule: Q01DX009 (ip), vehicle: gum acacia",3 of 3
Cc1nc2c(nc1C)C(=O)C=CC2=O,survivor count,[4],2 of 4
same,survivor count,[5],1 of 4
same,survivor count,[6],0 of 4
same,survivor count,[7],2 of 4
same,survivor count,[8],0 of 4
same,survivor count,[9],0 of 4
CCN(CCC[N+](C)(C)C)C(=O)C(c1ccccc1)c1ccccc1,survivor count,"dose: 200.0 mg/kg/injection, schedule: Q04DX003 (ip), vehicle: saline",3 of 6
same,survivor count,"dose: 400.0 mg/kg/injection, schedule: Q04DX003 (ip), vehicle: saline",0 of 6
Cc1ccn2c(=O)c(CCBr)c(C)nc2c1,survivor count,"dose: 37.5 mg/kg/injection, schedule: Q04DX003 (ip), vehicle: saline",6 of 6
same,survivor count,"dose: 75.0 mg/kg/injection, schedule: Q04DX003 (ip), vehicle: saline",1 of 6
O=c1[nH]ncc2c1[nH]c1cccc(Cl)c12,survivor count,"dose: 100.0 mg/kg/injection, schedule: Q04DX003 (ip), vehicle: carboxymethylcellulose (CMC)",6 of 6
CC1CC1C(=O)Cl (stereo not drawn),survivor count,[3],1 of 3
